Measured values reported in PMC10123111.
No constants are given. Whether binding was seen depends on the method and setting. For some assays here: Binding seen in cells or lysates may run through a third protein. Some entries that bind do so weakly or less than the wild type.

By UniProt entry, the sequences of proteins in these tests, tags left out. Where a name states a change or a piece, a line headed by the entry shows the natural chain unless it says otherwise. Residues count along the entry.
UniProt Q92466: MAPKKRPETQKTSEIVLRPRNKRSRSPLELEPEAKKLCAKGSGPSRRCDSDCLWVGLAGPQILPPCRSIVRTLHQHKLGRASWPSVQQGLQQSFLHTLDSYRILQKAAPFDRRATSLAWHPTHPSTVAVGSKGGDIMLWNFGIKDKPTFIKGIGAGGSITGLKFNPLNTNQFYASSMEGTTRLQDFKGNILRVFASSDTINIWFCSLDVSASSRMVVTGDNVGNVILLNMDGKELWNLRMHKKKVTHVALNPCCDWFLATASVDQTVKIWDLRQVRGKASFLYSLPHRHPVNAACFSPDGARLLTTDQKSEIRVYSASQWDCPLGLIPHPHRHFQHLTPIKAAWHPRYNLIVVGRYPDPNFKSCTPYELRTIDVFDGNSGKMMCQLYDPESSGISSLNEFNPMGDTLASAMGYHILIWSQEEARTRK
DDB2-mCherry: residues 2-419 of Q92466
UniProt Q16531: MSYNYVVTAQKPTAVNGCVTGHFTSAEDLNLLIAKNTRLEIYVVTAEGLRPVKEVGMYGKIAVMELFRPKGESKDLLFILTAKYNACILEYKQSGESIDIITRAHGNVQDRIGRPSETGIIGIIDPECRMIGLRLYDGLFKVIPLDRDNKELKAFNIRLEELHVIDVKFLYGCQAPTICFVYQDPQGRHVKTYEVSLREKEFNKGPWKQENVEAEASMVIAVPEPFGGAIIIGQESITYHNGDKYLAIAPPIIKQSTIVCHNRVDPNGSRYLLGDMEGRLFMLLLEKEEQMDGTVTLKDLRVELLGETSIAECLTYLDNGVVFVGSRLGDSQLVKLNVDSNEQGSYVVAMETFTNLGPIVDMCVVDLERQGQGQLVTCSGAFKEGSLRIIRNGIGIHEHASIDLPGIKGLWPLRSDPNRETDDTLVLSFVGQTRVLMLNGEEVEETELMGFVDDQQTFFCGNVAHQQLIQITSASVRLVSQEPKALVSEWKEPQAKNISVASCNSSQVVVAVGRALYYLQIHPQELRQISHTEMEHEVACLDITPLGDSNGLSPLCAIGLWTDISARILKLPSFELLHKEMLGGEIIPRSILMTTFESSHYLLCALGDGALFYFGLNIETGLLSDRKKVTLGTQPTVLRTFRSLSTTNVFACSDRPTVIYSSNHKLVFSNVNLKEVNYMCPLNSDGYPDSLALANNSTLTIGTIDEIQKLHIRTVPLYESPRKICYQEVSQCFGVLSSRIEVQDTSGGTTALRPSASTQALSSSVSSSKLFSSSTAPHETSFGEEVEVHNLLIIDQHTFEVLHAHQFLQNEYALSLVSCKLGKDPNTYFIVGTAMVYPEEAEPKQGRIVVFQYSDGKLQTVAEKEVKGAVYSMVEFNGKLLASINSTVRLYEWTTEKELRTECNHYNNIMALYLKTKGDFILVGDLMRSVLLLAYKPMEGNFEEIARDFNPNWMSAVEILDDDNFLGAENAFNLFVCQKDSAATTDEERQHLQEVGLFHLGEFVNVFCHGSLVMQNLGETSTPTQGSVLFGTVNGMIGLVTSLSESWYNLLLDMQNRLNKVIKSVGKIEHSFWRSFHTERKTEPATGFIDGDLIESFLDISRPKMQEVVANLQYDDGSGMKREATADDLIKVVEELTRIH

Columns and labels:
[1] = biological target: DDB2-Flag (recombinant, subunit of purified UV-DDB) (UniProt Q92466); assay: co-purification (Ni affinity, anti-FLAG affinity, SEC); His6-DDB1 and DDB2-Flag co-expressed in Sf9; His-Trap HP column, then anti-FLAG M2 affinity gel, then HiLoad 16/60 Superdex 200 in 50 mM HEPES pH 7.5, 200 mM KCl, 1 mM EDTA, 2 mM DTT, 10% glycerol
DDB2-mCherry = DDB2-mCherry (UniProt Q92466); assay: FRET or BRET; single-molecule FRET on DNA in the C-trap; donor eGFP-DDB1 excited at 488 nm (50% power, 34 ms per frame), acceptor DDB2-mCherry; eGFP bleed-over of 9.0% subtracted

Row | binding [1] | binding (DDB2-mCherry) | Substance
1 | binds |  | His6-DDB1 (recombinant, subunit of purified UV-DDB) (from UniProt Q16531 1-1140)
2 |  | binds | eGFP-DDB1 (DNA damage-binding protein 1 with an N-terminal eGFP tag) (from UniProt Q16531 2-1140)
